In patent US20140112883A1:
These are yes or no findings as the source states them, for the method shown. Some results given as binding are weak or reduced against the parent protein; the word gives no strength.

How the values were obtained:
[1] = molecular target: soluble human CD4 (Affinity Bioreagents) (human) (UniProt P01730); experiment: ELISA, soluble human CD4 coated at 2 µg/ml, serum TRX1 detected with anti-human IgG F(ab)'2-peroxidase
[2] = molecular target: human CD4 receptor on human lymphocytes (human) (UniProt P01730); experiment: flow cytometry of whole blood from dosed subjects, anti-human IgG detection
[3] = molecular target: human CD4 receptor on human lymphocytes (human) (UniProt P01730); experiment: flow cytometry, free TRX1 binding sites stained with biotinylated TRX1, blood of subjects dosed with TRX1

Measured: binding

B1: TRX1 antibody (humanized anti-CD4 IgG1 monoclonal antibody, aglycosyl, N297A) (antibody, V domains shown)
VH: QVQLVQSGAEVKKPGASVKVSCKASGYTFTAYVISWVRQAPGQGLEWMGEIYPGSGSSYYNEKFKGRVTNTRDTSTSTVYMELSSLRSEDTAVYYCARSGDGSRFVYWGQGTLVTVSS
VL: DIVMTQSPDSLAVSLGERATINCKASQSVDYDGDSYSNWYQQKPGQPPKLLIYVASNLESGVPDRFSGSGSGTDFTLTISSLQAEDVAVYYCQQSLQDPPTFGGGTKVEIKR
binds: all assays above
